Values from PubChem BioAssay AID1053208 (Peter MacCallum Cancer Centre, 2014)
Here is one part, drawn at random, of about 17,000 reagents. Over the whole deposit, 788 (4.7%) were called active. 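Calls rest on z-score classes alone; an extra cut-off of viability at most 70% of control was not applied to them.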 Unmarked entries are inactive.

Purpose: 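Find knock-downs that sensitise mouse osteosarcoma cells to doxorubicin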 (primary screen)
Cells: mouse osteosarcoma cells, early-passage culture from an engineered mouse model of fibroblastic bone tumour
Reagent: siRNA pool against mouse genes, 40 nM
Timing: about 120 h (48 h before drug, then 72 h with drug)
Treatment: doxorubicin 100 nM for 72 h, roughly 30-40% inhibitory dose
Read-out: 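Viability read as ATP luminescence after 72 h of 100 nM doxorubicin or none, duplicate wells averaged, scaled to non-targeting siRNA, then expressed as robust z-scores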
Scale: viability z-score with doxorubicin and doxorubicin viability vs non-targeting: higher = more viable cells under doxorubicin; viability z-score without drug: higher = more viable cells with knock-down alone; z-score of drug to no-drug ratio: higher = less drug sensitisation by knock-down
Rule for the call: 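Called active if knock-down leaves viability unchanged without drug (z within -2 to 2) but lowers it with doxorubicin (z at or under -2)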

| target | combined z-score class | viability z-score with doxorubicin | viability z-score without drug | z-score of drug to no-drug ratio | doxorubicin viability vs non-targeting |
| --- | --- | --- | --- | --- | --- |
| A130010J15Rik | no change with or without drug | -0.56 | 1.18 | -1.24 | 0.89 |
| Cnot11 | no change with or without drug | 0 | 0.67 | -0.34 | 0.94 |
| Mvp | no change with or without drug | 0 | -0.17 | 0.22 | 0.94 |
| Bpgm | no change with or without drug | 0 | -0.51 | 0.45 | 0.94 |
| Myd88 | no change with or without drug | 0.67 | -0.17 | 0.9 | 1 |
| Dusp5 | no change with or without drug | 1.91 | 0.17 | 2.02 | 1.11 |
| Spata33 | no change with or without drug | 0.11 | -0.17 | 0.34 | 0.95 |
| Dyrk1b | no change with or without drug | -0.45 | -1.85 | 1.01 | 0.9 |
| Ankrd23 | no change with or without drug | 0.22 | -0.17 | 0.45 | 0.96 |
| Sec61g | no change with or without drug | 0 | -1.69 | 1.46 | 0.94 |
| Ugdh | no change with or without drug | -1.8 | -0.84 | -1.24 | 0.78 |
| Crebl2 | high cell count without drug only | 0.34 | 2.19 | -0.9 | 0.97 |
| Eps8 | no change with or without drug | -0.9 | 0 | -0.79 | 0.86 |
| Hecw1 | no change with or without drug | -0.56 | 0.51 | -0.79 | 0.89 |
| Mpg | no change with or without drug | 1.91 | -0.17 | 2.25 | 1.11 |
| Frs2 | low cell count with doxorubicin only (active) | -3.04 | -1.18 | -2.47 | 0.67 |
| Oas1a | no change with or without drug | 1.01 | 0.34 | 0.9 | 1.03 |
| Flt3l | no change with or without drug | -1.35 | 0.34 | -1.46 | 0.82 |
| Slc22a30 | no change with or without drug | -0.56 | -0.84 | 0.11 | 0.89 |
| Tmprss4 | no change with or without drug | 0.45 | 0.84 | 0 | 0.98 |
| Foxf1 | high cell count without drug only | 0.56 | 2.36 | -0.79 | 0.99 |
| Or4b1d | no change with or without drug | -1.35 | -1.85 | 0 | 0.82 |
| Stac | no change with or without drug | -0.45 | -0.67 | 0.11 | 0.9 |
| Elmo3 | no change with or without drug | -1.35 | 0.34 | -1.46 | 0.82 |
| Emg1 | no change with or without drug | -0.45 | 0.17 | -0.45 | 0.9 |
| 5830402J09 | no change with or without drug | 0.22 | -0.17 | 0.45 | 0.96 |
| Cd300a | no change with or without drug | -1.69 | -0.51 | -1.35 | 0.79 |
| Idh1 | no change with or without drug | -1.35 | -0.51 | -1.01 | 0.82 |
| Or4n5 | no change with or without drug | -0.45 | 0.51 | -0.67 | 0.9 |
| Golm2 | no change with or without drug | 0 | 0.34 | -0.11 | 0.94 |
| Pcdh10 | no change with or without drug | 0 | 0.51 | -0.22 | 0.94 |
| Rpl8 | low cell count with and without drug | -7.19 | -8.09 | -3.82 | 0.3 |
| Capns1 | no change with or without drug | 0.45 | 0.84 | 0 | 0.98 |
| Vipr1 | no change with or without drug | -0.22 | 1.35 | -1.01 | 0.92 |
